Results as given in PMC4599966.
These are yes or no findings as the source states them, for the method shown. Some binding calls cover weakened binding; strength is not graded here.

Amino acid sequences for entries named in this document (tags omitted).
UniProt Q96CV9: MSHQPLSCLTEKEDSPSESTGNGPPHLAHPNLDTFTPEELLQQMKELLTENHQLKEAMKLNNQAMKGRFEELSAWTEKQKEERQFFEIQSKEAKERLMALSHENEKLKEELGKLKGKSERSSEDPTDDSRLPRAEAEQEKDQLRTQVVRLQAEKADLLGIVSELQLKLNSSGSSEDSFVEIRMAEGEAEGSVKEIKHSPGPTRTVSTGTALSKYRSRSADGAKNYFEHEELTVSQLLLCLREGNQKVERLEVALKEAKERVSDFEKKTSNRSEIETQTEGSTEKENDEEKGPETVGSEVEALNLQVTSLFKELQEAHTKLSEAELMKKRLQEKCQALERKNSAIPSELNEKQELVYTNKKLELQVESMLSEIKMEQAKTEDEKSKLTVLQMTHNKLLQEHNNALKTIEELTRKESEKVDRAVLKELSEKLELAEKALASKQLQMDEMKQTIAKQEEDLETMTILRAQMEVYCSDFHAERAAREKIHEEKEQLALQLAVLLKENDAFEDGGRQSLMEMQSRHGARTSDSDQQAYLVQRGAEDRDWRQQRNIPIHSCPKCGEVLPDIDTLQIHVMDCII

Molecular target: LC3C (two-hybrid bait) (UniProt Q9BXW4)
Test: two-hybrid; mammalian 2-hybrid in CHO cells, bait in pM, prey in pVP16, luciferase reporter after 48 hours, normalised against a bait only control

optineurin full-length wild-type (two-hybrid prey) (from UniProt Q96CV9 1-577)
binding: binds
